Several values for one entry are separate records, joined by “and”; a condition that tells them apart may be missing. Equal values may be shown once. Further values from the same series stand in other lists.
Test system: RPE1 cells
Experiment: Cell growth assay (IncuCyte confluence over 72 h)
Type: cell-based
Experimental: Cell growth assay: Cell confluence (phase) from RPE1 (hTERT RPE-1, ATCC CLR_4000) or U2OS (ATCC, HTB-96) cell lines were monitored over time with the IncuCyte S3 (Sartiorius, Germany) in 384-well plates in 50 ul DMEM media, supplemented with 10% Fetal Bovine Serum (FBS) 1% penicillin/Streptomycin and incubated 24 h before treatment. Experiment was performed as described in Cano-Franco et al.. 50 μl of media containing either 2× final concentration of indicated compounds in or control compounds (final conc.: 0.1% DMSO, 250 nM Torin1, 200 ng/mL Bafilomycin) were added and images were taken every two hours over 72 h. Cell confluence is represented as % of area covered by cells. Each data point represents the average ratio or confluence obtained from three individual wells of the plate.

With `O=C1Nc2ccc(Br)cc2C1=Cc1cc(O)c(O)c(Br)c1` [compound 1] the RPE1 cell growth (5 uM, 70 h, listed as AN1) was 95 and 61 and 84, the RPE1 cell growth (5 uM, 72 h, listed as AN1) was 97 and 62 and 88 and the RPE1 cell growth (5 uM, time 20 h, listed as AN1) was 47 and 36 and 40. For the same compound, the RPE1 cell growth (5 uM, time 22 h, listed as AN1) was 49 and 38 and 43, the RPE1 cell growth (5 uM, time 24 h, listed as AN1) was 56 and 39 and 44 and the RPE1 cell growth (5 uM, time 26 h, listed as AN1) was 60 and 42 and 47. For the same compound, the RPE1 cell growth (5 uM, time 28 h, listed as AN1) was 62 and 45 and 49, the RPE1 cell growth (5 uM, time 30 h, listed as AN1) was 67 and 51 and 53 and the RPE1 cell growth (5 uM, time 32 h, listed as AN1) was 72 and 53 and 57. The RPE1 cell growth (5 uM, time 34 h, listed as AN1) was 75 and 58 and 60, the RPE1 cell growth (5 uM, time 36 h, listed as AN1) was 80 and 63 and 64 and the RPE1 cell growth (5 uM, time 38 h, listed as AN1) was 82 and 66 and 68. The RPE1 cell growth (5 uM, time 40 h, listed as AN1) was 87 and 70 and 72, the RPE1 cell growth (5 uM, time 42 h, listed as AN1) was 90 and 73 and 76 and the RPE1 cell growth (5 uM, time 44 h, listed as AN1) was 92 and 78 and 81. The RPE1 cell growth (5 uM, time 46 h, listed as AN1) was 95 and 83 and 85, the RPE1 cell growth (5 uM, time 48 h, listed as AN1) was 97 and 88 and 89 and the RPE1 cell growth (5 uM, time 50 h, listed as AN1) was 98 and 91 and 92. For the same compound, the RPE1 cell growth (5 uM, time 52 h, listed as AN1) was 99 and 95, the RPE1 cell growth (5 uM, time 54 h, listed as AN1) was 99 and 97 and the RPE1 cell growth (5 uM, time 56 h, listed as AN1) was 100 and 99 and 98. For the same compound, the RPE1 cell growth (5 uM, time 58 h, listed as AN1) was 100 and 99, the RPE1 cell growth (5 uM, time 60 h, listed as AN1) was 100 and 99 and the RPE1 cell growth (5 uM, time 62 h) was 100. For the same compound, the RPE1 cell growth (5 uM, time 64 h) was 100, the RPE1 cell growth (5 uM, time 66 h) was 100 and the RPE1 cell growth (5 uM, time 68 h) was 100. For the same compound, the RPE1 cell growth (5 uM, time 70 h) was 100, the RPE1 cell growth (5 uM, time 72 h) was 100 and the RPE1 cell growth (10 uM, 0 h, listed as AN1) was 27 and 26 and 18. The RPE1 cell growth (10 uM, 2 h, listed as AN1) was 34 and 30 and 21, the RPE1 cell growth (10 uM, 4 h, listed as AN1) was 39 and 29 and 25 and the RPE1 cell growth (10 uM, 6 h, listed as AN1) was 46 and 29 and 27. For the same compound, the RPE1 cell growth (10 uM, 8 h, listed as AN1) was 45 and 33 and 29, the RPE1 cell growth (10 uM, 22 h, listed as AN1) was 57 and 44 and 38 and the RPE1 cell growth (10 uM, 24 h, listed as AN1) was 59 and 43 and 39. The RPE1 cell growth (10 uM, 26 h, listed as AN1) was 59 and 42 and 41, the RPE1 cell growth (10 uM, 28 h, listed as AN1) was 59 and 43 and 39 and the RPE1 cell growth (10 uM, 30 h, listed as AN1) was 62 and 45 and 41. For the same compound, the RPE1 cell growth (10 uM, 32 h, listed as AN1) was 62 and 45 and 42, the RPE1 cell growth (10 uM, 34 h, listed as AN1) was 62 and 42 and 43 and the RPE1 cell growth (10 uM, 36 h, listed as AN1) was 64 and 47 and 43. The RPE1 cell growth (10 uM, 38 h, listed as AN1) was 64 and 45 and 42, the RPE1 cell growth (10 uM, 40 h, listed as AN1) was 57 and 51 and 42 and the RPE1 cell growth (10 uM, 42 h, listed as AN1) was 65 and 48 and 42. For the same compound, the RPE1 cell growth (10 uM, 44 h, listed as AN1) was 67 and 49 and 44, the RPE1 cell growth (10 uM, 46 h, listed as AN1) was 68 and 48 and 44 and the RPE1 cell growth (10 uM, 48 h, listed as AN1) was 69 and 49 and 44. The RPE1 cell growth (10 uM, 50 h, listed as AN1) was 70 and 48 and 43, the RPE1 cell growth (10 uM, 52 h, listed as AN1) was 70 and 52 and 43 and the RPE1 cell growth (10 uM, 54 h, listed as AN1) was 72 and 47 and 44. For the same compound, the RPE1 cell growth (10 uM, 56 h, listed as AN1) was 72 and 49 and 43, the RPE1 cell growth (10 uM, 58 h, listed as AN1) was 73 and 49 and 43 and the RPE1 cell growth (10 uM, 60 h, listed as AN1) was 72 and 51 and 42. The RPE1 cell growth (10 uM, 62 h, listed as AN1) was 74 and 50 and 43, the RPE1 cell growth (10 uM, 64 h, listed as AN1) was 74 and 52 and 43 and the RPE1 cell growth (10 uM, 66 h, listed as AN1) was 76 and 53 and 43. For the same compound, the RPE1 cell growth (10 uM, 68 h, listed as AN1) was 75 and 52 and 43, the RPE1 cell growth (10 uM, 70 h, listed as AN1) was 77 and 51 and 42 and the RPE1 cell growth (10 uM, 72 h, listed as AN1) was 78 and 53 and 44. For the same compound, the RPE1 cell growth (10 uM, time 20 h, listed as AN1) was 43 and 35 and 33, the RPE1 cell growth (10 uM, time 22 h, listed as AN1) was 45 and 39 and 36 and the RPE1 cell growth (10 uM, time 24 h, listed as AN1) was 50 and 42 and 38. The RPE1 cell growth (10 uM, time 26 h, listed as AN1) was 52 and 42 and 41, the RPE1 cell growth (10 uM, time 28 h, listed as AN1) was 56 and 45 and 42 and the RPE1 cell growth (10 uM, time 30 h, listed as AN1) was 60 and 49 and 47. For the same compound, the RPE1 cell growth (10 uM, time 32 h, listed as AN1) was 64 and 53 and 50, the RPE1 cell growth (10 uM, time 34 h, listed as AN1) was 68 and 55 and 52 and the RPE1 cell growth (10 uM, time 36 h, listed as AN1) was 73 and 59 and 55. The RPE1 cell growth (10 uM, time 38 h, listed as AN1) was 76 and 62 and 59, the RPE1 cell growth (10 uM, time 40 h, listed as AN1) was 80 and 67 and 64 and the RPE1 cell growth (10 uM, time 42 h, listed as AN1) was 84 and 71 and 67. The RPE1 cell growth (10 uM, time 44 h, listed as AN1) was 89 and 76 and 72, the RPE1 cell growth (10 uM, time 46 h, listed as AN1) was 92 and 81 and 75 and the RPE1 cell growth (10 uM, time 48 h, listed as AN1) was 95 and 84 and 79. The RPE1 cell growth (10 uM, time 50 h, listed as AN1) was 97 and 89 and 83, the RPE1 cell growth (10 uM, time 52 h, listed as AN1) was 98 and 92 and 86 and the RPE1 cell growth (10 uM, time 54 h, listed as AN1) was 99 and 95 and 89. The RPE1 cell growth (10 uM, time 56 h, listed as AN1) was 99 and 97 and 92, the RPE1 cell growth (10 uM, time 58 h, listed as AN1) was 100 and 98 and 94 and the RPE1 cell growth (10 uM, time 60 h, listed as AN1) was 100 and 99 and 96. For the same compound, the RPE1 cell growth (10 uM, time 62 h, listed as AN1) was 100 and 98, the RPE1 cell growth (10 uM, time 64 h, listed as AN1) was 100 and 99 and the RPE1 cell growth (10 uM, time 66 h, listed as AN1) was 100 and 99. The RPE1 cell growth (10 uM, time 68 h) was 100, the RPE1 cell growth (10 uM, time 70 h) was 100 and the RPE1 cell growth (10 uM, time 72 h) was 100.

Reference: paper PMC11589570, “Critical assessment of LC3/GABARAP ligands used for degrader development and ligandability of LC3/GABARAP binding pockets” (Nature Communications, 2024)
